Test in all cases: co-IP + pull-down
Test [1] addresses PtsN, nitrogen regulatory protein with a phosphotransferase component (UniProt Q9HVV4).
In test [2] the target is LPS biosynthesis protein WbpG (P. aeruginosa) (UniProt Q9HZ78).
Test [3] addresses Uncharacterized protein PA4106 (P. aeruginosa) (UniProt Q9HWS2).
Test [4] has as its target T1, protein of unknown function YcaR (E. coli) (UniProt P0AAZ7).
T1 sequence: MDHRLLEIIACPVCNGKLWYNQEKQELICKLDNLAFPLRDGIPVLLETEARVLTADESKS

Amino acid sequences for entries named in this document (tags omitted).
UniProt Q9HVV4: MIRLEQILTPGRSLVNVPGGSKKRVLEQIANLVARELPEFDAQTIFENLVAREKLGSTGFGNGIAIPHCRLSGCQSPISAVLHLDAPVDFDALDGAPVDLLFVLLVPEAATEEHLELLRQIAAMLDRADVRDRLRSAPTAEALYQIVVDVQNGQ
UniProt Q9HWS2: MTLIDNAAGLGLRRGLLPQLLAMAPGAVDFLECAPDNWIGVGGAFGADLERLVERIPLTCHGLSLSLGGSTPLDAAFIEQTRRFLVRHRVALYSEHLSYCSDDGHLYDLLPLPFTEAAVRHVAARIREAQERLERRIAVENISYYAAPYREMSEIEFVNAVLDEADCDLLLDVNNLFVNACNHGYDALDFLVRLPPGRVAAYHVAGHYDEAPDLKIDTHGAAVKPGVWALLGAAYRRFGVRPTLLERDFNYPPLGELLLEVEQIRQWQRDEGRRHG
UniProt Q9HVV2: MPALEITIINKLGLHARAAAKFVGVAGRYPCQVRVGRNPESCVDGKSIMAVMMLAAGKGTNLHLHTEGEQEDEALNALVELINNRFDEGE
UniProt P72139: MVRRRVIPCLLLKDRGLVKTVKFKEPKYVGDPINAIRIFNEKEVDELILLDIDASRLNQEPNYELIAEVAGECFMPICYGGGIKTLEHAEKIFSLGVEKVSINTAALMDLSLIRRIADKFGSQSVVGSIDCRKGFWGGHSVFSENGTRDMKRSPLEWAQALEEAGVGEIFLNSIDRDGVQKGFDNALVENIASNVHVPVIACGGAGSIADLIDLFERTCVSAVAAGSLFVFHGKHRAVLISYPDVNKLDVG

These are yes or no findings as the source states them, for the method shown. In cells and extracts the contact can be indirect. Some binding calls cover weakened binding; strength is not graded here.

In the case of “PtsH, histidine-phosphorylatable phosphocarrier protein (from UniProt Q9HVV2 1-90)”, the binding result in test [1] was “no binding”.

“Putative imidazole glycerol phosphate synthase subunit hisF2 (from UniProt P72139 1-251)”: the binding result in test [2] is reported as “binds”. On to “putative transcriptional factor PA4105 (from UniProt Q9HWS3 1-251)”, for which the binding result in test [3] is on record as “binds”.

B1: Ubiquinone biosynthesis C-methyltransferase UbiE (protein, UniProt P0A887 1-251)
chain: MVDKSQETTHFGFQTVAKEQKADMVAHVFHSVASKYDVMNDLMSFGIHRLWKRFTIDCSGVRRGQTVLDLAGGTGDLTAKFSRLVGETGKVVLADINESMLKMGREKLRNIGVIGNVEYVQANAEALPFPDNTFDCITISFGLRNVTDKDKALRSMYRVLKPGGRLLVLEFSKPIIEPLSKAYDAYSFHVLPRIGSLVANDADSYRYLAESIRMHPDQDTLKAMMQDAGFESVDYYNLTAGVVALHRGYKF
As for B1, in test [4], the binding entry is “binds”.

Source of the values: paper doi:10.1101/2024.04.12.589144.
